PubChem BioAssay AID1224828 | NIAID – 2016

Aim: 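Knock-downs that increase or decrease LPS-induced p65 nuclear translocation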 (primary screen)
Cell system: mouse RAW264.7 G9 macrophage reporter cells (GFP-p65, Tnf promoter-mCherry)
Knock-down reagent: siRNA pool against mouse genes, 100 nM
Time to read-out: 2 days siRNA transfection, then 40 min LPS before fixation
Conditions: LPS (Salmonella minnesota R595) at 10 ng/ml
Measured: 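Microscopy ratio of nuclear to perinuclear-ring GFP-p65 signal, scaled to the plate median; gene score is the average of two replicate robust z-scores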
Reading the numbers: p65 translocation robust z-score: higher = more nuclear NF-kappaB p65 after LPS than the plate median; nuclear/cytoplasmic p65 ratio: higher = more nuclear NF-kappaB p65
Call rule: 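Called active when z exceeds 3.3 or falls under -1.56 (median of Tlr4 controls), giving activity score of at least 50; no calls for control wells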
Meaning of the calls: active = hit (p65 shift raised or lowered); inactive = no clear change
Shown is one part, drawn at random, of about 17,000 reagents tested. In the full data, 762 (4.5%) were called active. 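Active calls include both raised and lowered p65 entry, mostly lowered; wells with fewer than 50 cells lack a z-score.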 Raw values vary from plate to plate and are shown uncorrected.

Target gene | p65 translocation robust z-score | nuclear/cytoplasmic p65 ratio, rep 1 | nuclear/cytoplasmic p65 ratio, rep 2 | low cell count flag | Outcome
Smndc1 | – | 1.28 | 1.18 | fewer than 50 cells per well; well left out of scoring | inactive
Vmn1r23 | 0.09 | 1.4 | 1.24 | enough cells to score | inactive
Myo9b | 0.51 | 1.56 | 1.36 | enough cells to score | inactive
Gpr45 | 0.87 | 1.74 | 1.71 | enough cells to score | inactive
Skap1 | 0.72 | 1.89 | 1.4 | enough cells to score | inactive
Slc16a14 | 2.26 | 1.69 | 1.53 | enough cells to score | inactive
Agxt | 0.06 | 1.57 | 1.69 | enough cells to score | inactive
Defa-rs12 | -0.2 | 1.53 | 1.53 | enough cells to score | inactive
Wnt10a | 0.44 | 1.64 | 1.65 | enough cells to score | inactive
Rpl31 | -0.7 | 1.42 | 1.14 | enough cells to score | inactive
Tubb2a | -0.21 | 1.59 | 1.38 | enough cells to score | inactive
Ube2i | -0.75 | 1.44 | 1.36 | enough cells to score | inactive
Ace | 0.28 | 1.68 | 1.64 | enough cells to score | inactive
4921509C19Rik | – | 1.22 | 1.28 | fewer than 50 cells per well; well left out of scoring | inactive
Ankrd9 | -1.44 | 1.24 | 1.62 | enough cells to score | inactive
Akr7a5 | -0.06 | 1.61 | 1.61 | enough cells to score | inactive
Grb14 | 0.72 | 1.55 | 1.44 | enough cells to score | inactive
Ypel1 | 0.23 | 1.38 | 1.33 | enough cells to score | inactive
Wdr20rt | 0.08 | 1.44 | 1.24 | enough cells to score | inactive
Sf3b3 | 0.53 | 1.4 | 1.65 | enough cells to score | inactive
Zfp609 | -0.82 | 1.26 | 1.19 | enough cells to score | inactive
Zfp128 | 0.45 | 1.46 | 1.31 | enough cells to score | inactive
Irf2bpl | 2.85 | 1.68 | 1.89 | enough cells to score | inactive
Thra | -1.28 | 1.37 | 1.31 | enough cells to score | inactive
Wfdc15a | -0.79 | 1.29 | 1.31 | enough cells to score | inactive
Atp5pb | 0.62 | 1.69 | 1.6 | enough cells to score | inactive
Il17a | -1.34 | 1.22 | 1.23 | enough cells to score | inactive
Tram2 | 1.83 | 1.47 | 1.39 | enough cells to score | inactive
Ggt6 | 0.4 | 1.45 | 1.63 | enough cells to score | inactive
F13a1 | 1.15 | 1.65 | 1.49 | enough cells to score | inactive
Ppp1r3b | -1.13 | 1.29 | 1.31 | enough cells to score | inactive
Cenpi | 0.32 | 1.68 | 1.47 | enough cells to score | inactive
Cyb5r1 | -1.28 | 1.3 | 1.23 | enough cells to score | inactive
F9 | 0.73 | 1.44 | 1.45 | enough cells to score | inactive
Bcl9 | -0.64 | 1.45 | 1.58 | enough cells to score | inactive
9430019C24Rik | 1.51 | 1.64 | 1.75 | enough cells to score | inactive
Nek8 | – | 1.81 | 1.26 | fewer than 50 cells per well; well left out of scoring | inactive
Hmgcll1 | – | 1.36 | 1.19 | fewer than 50 cells per well; well left out of scoring | inactive
Ctrl | -0.77 | 1.44 | 1.23 | enough cells to score | inactive
Lypd9 | – | 1.1 | 1.09 | fewer than 50 cells per well; well left out of scoring | inactive

Targets listed so far whose target name starts with F or f (2):
Target gene | p65 translocation robust z-score | nuclear/cytoplasmic p65 ratio, rep 1 | nuclear/cytoplasmic p65 ratio, rep 2 | low cell count flag | Outcome
F13a1 | 1.15 | 1.65 | 1.49 | enough cells to score | inactive
F9 | 0.73 | 1.44 | 1.45 | enough cells to score | inactive
